Laboratory results as given in patent US20190262409A1, “NOVEL LACTOBACILLUS SAKEI AND COMPOSITION COMPRISING THE SAME” (CJ Cheiljedang Corporation, priority 2016, published 2019).
Some of these results come from one statement about several compounds together.

Tested on: obesity induced mice with high fat diet
Assay: Autopsy and blood biochemistry examination in high fat diet mice
Format: in vivo
Conditions: serum, day 49; normal is 40 u/L or below (FIG. 9)
Source text: From the time of arrival, all animals underwent a 6-week induction period, including a one-week acclimation period. The mice were divided into normal diet (negative control) and high fat diet (positive control and experiment group) and each fed, while given feed and water ad libitum for 6 weeks from the day of division (day 0). The CJLS03 according to the present disclosure was grouped according to concentrations (low: 10^8 CFU, medium: 10^9 CFU, high: 10^10 CFU). To measure accurate efficacy, a commercially available FDA-approved anti-obesity drug Orlistat (Product name: Zenical), and a health function food Garcinia cambogia were added as experiment groups in addition to the normal diet control group and high fat diet group, and compared with the anti-obesity function of the lactic acid bacterial.
For administration, the lactic acid bacteria were homogeneously suspended in PBS and administered in a 10 mL/kg of administration volume twice daily at determined times (10:00 A.M. to 11:00 A.M., 5:00 P.M. to 6:00 P.M.) for 7 weeks, while the control groups were orally administered with the same amount of solvent vehicle (PBS) twice daily for 7 weeks. Experimental substances were newly prepared and administered into the A.M. and P.M.-administered strain. […]

With `CCCCCCCCCCC[C@@H](C[C@@H]1OC(=O)[C@H]1CCCCCC)OC(=O)[C@H](CC(C)C)NC=O` [OLS, Orlistat] the “concentration of ALT” value was at least 40 u/L.
